Results deposited as PubChem BioAssay AID1508588 (Peter MacCallum Cancer Centre, 2020).
The whole screen tested about 18,000 reagents; this is a random part of them. 790 of all reagents (4.4%) were called active. 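Calls rest on a combination of fold-change classes in drug and vehicle arms, not all shown here.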

Screen: 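Which gene losses make BRAF-mutant melanoma cells more responsive to vemurafenib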 (primary screen)
Cells: human WM266.4 melanoma cells (BRAF V600 mutant)
Reagents: siRNA pool against human genes, 40 nM
Timing: 96 h from transfection to read-out
Treatment: vemurafenib 300 nM (about IC25), added 48 h after transfection, for 48 h; comparison arm got DMSO vehicle only
Detection: 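Ratios to non-targeting siRNA for cell gain, counted as DAPI nuclei after minus before drug and averaged over two replicates, and for absorbance-read medium lactate per cell; both binned into fold-change classes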
Direction: cell gain with vemurafenib: higher = more cell gain than with non-targeting siRNA; lactate per cell with vemurafenib: higher = more lactate made per cell
Active means: 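a knock-down counts as enhancing when its fold-change classes with vehicle and with vemurafenib, taken together, show a stronger drug effect on cell gain or lactate per cell; exact class pairs not stated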
Calls: active = enhances vemurafenib effect; inactive = no enhancement seen

After knock-down of SORD (GeneID 6652) the results were cell gain with vemurafenib 0.2; lactate per cell with vemurafenib 1.57; inactive.
With knock-down of STARD13 (GeneID 90627) the results were cell gain with vemurafenib 0.99; lactate per cell with vemurafenib 0.77; inactive.
Against MRPL38 (GeneID 64978), the values are cell gain with vemurafenib 0.48; lactate per cell with vemurafenib 0.87; inactive.
After knock-down of ELF4 (GeneID 2000) the results were cell gain with vemurafenib 0.67; lactate per cell with vemurafenib 2.35; inactive.
After knock-down of ZNF507 (GeneID 22847), the screen gave cell gain with vemurafenib 1.36; lactate per cell with vemurafenib 0.1; inactive.
Silencing of PRKAG2 (GeneID 51422) came out at: cell gain with vemurafenib 1.02; lactate per cell with vemurafenib 0.7; inactive.
For RSPH4A (GeneID 345895) the deposit lists cell gain with vemurafenib 0.37; lactate per cell with vemurafenib 0.96; inactive.
Knock-down of MID2 (GeneID 11043) came out at: cell gain with vemurafenib 0.98; lactate per cell with vemurafenib 0.52; inactive.
For HACD4 (GeneID 401494), the values are cell gain with vemurafenib 0.96; lactate per cell with vemurafenib 0.46; inactive.
Knock-down of KRTAP26-1 (GeneID 388818) resulted in: cell gain with vemurafenib 0.47; lactate per cell with vemurafenib 1.77; inactive.
Against MAP7D1 (GeneID 55700), the values are cell gain with vemurafenib 0.46; lactate per cell with vemurafenib 0.64; inactive.
For ZC3H12B (GeneID 340554), the entry reads cell gain with vemurafenib 0.29; lactate per cell with vemurafenib 0.64; inactive.
Silencing of NDC80 (GeneID 10403) gave: cell gain with vemurafenib -0.07; lactate per cell with vemurafenib 2.12; inactive.
CARINH (GeneID 441108) scored cell gain with vemurafenib 0.26; lactate per cell with vemurafenib 4.76; inactive.
Knock-down of ZNF676 (GeneID 163223) gave: cell gain with vemurafenib 0.1; lactate per cell with vemurafenib 0.93; inactive.
Silencing of NIPA1 (GeneID 123606) gave: cell gain with vemurafenib 0.93; lactate per cell with vemurafenib 0.52; inactive.
Depletion of CST6 (GeneID 1474) came out at: cell gain with vemurafenib 0.54; lactate per cell with vemurafenib 0.81; inactive.
KRTAP3-3 (GeneID 85293) gave cell gain with vemurafenib 0.95; lactate per cell with vemurafenib 0.65; inactive.
Against CYP1B1 (GeneID 1545) the deposit lists cell gain with vemurafenib 0.71; lactate per cell with vemurafenib 1.31; inactive.
Against FBXL14 (GeneID 144699), the entry reads cell gain with vemurafenib 0.65; lactate per cell with vemurafenib 0.57; inactive.
With knock-down of LRRC8B (GeneID 23507), the screen gave cell gain with vemurafenib 1.74; lactate per cell with vemurafenib 0.66; inactive.
Against IL9 (GeneID 3578), the entry reads cell gain with vemurafenib 0.26; lactate per cell with vemurafenib 2.29; inactive.
Depletion of KIAA0513 (GeneID 9764) came out at: cell gain with vemurafenib 0.88; lactate per cell with vemurafenib 0.9; inactive.
Against ANXA4 (GeneID 307) the deposit lists cell gain with vemurafenib 0.36; lactate per cell with vemurafenib 1.31; inactive.
Knock-down of PADI6 (GeneID 353238) gave: cell gain with vemurafenib 0.38; lactate per cell with vemurafenib 1.36; inactive.
Against DGCR6 (GeneID 8214), the entry reads cell gain with vemurafenib 0.43; lactate per cell with vemurafenib 1.12; inactive.
With knock-down of PAPPA (GeneID 5069) the results were cell gain with vemurafenib 0.7; lactate per cell with vemurafenib 0.72; inactive.
With knock-down of MAGEA1 (GeneID 4100), the record shows cell gain with vemurafenib 0.94; lactate per cell with vemurafenib 0.92; inactive.
Silencing of SLC13A1 (GeneID 6561) resulted in: cell gain with vemurafenib 1.02; lactate per cell with vemurafenib 0.7; inactive.
Knock-down of HIVEP3 (GeneID 59269) came out at: cell gain with vemurafenib 1.29; lactate per cell with vemurafenib 0.78; inactive.
Depletion of OTULIN (GeneID 90268) came out at: cell gain with vemurafenib 0.63; lactate per cell with vemurafenib 0.94; inactive.
Silencing of MAPK8IP2 (GeneID 23542) gave: cell gain with vemurafenib 0.56; lactate per cell with vemurafenib 1.33; inactive.
FERMT1 (GeneID 55612) gave cell gain with vemurafenib 0.53; lactate per cell with vemurafenib 1.06; inactive.
Depletion of SLC18B1 (GeneID 116843) resulted in: cell gain with vemurafenib 1.29; lactate per cell with vemurafenib 0.78; inactive.
CYLC1 (GeneID 1538) showed cell gain with vemurafenib 0.41; lactate per cell with vemurafenib 1; inactive.
With knock-down of VIRMA (GeneID 25962), the screen gave cell gain with vemurafenib 0.8; lactate per cell with vemurafenib 1.32; inactive.
For EMC7 (GeneID 56851), the entry reads cell gain with vemurafenib 0.72; lactate per cell with vemurafenib 0.68; active.
After knock-down of KCNA5 (GeneID 3741), the screen gave cell gain with vemurafenib 0.54; lactate per cell with vemurafenib 0.92; inactive.
COLEC11 (GeneID 78989) showed cell gain with vemurafenib 0.31; lactate per cell with vemurafenib 1.63; inactive.
PDPK1 (GeneID 5170) gave cell gain with vemurafenib 0.17; lactate per cell with vemurafenib 0.29; active.
After knock-down of CYB561A3 (GeneID 220002), the record shows cell gain with vemurafenib 0.73; lactate per cell with vemurafenib 0.82; inactive.
Against FFAR1 (GeneID 2864), the values are cell gain with vemurafenib 0.91; lactate per cell with vemurafenib 0.57; inactive.
For KHDRBS2 (GeneID 202559) the deposit lists cell gain with vemurafenib 0.69; lactate per cell with vemurafenib 1.42; inactive.
Against CSNK1G3 (GeneID 1456), the values are cell gain with vemurafenib 0.88; lactate per cell with vemurafenib 0.64; inactive.
Against CASC3 (GeneID 22794) the deposit lists cell gain with vemurafenib 0.71; lactate per cell with vemurafenib 0.1; inactive.
SPAG11A (GeneID 653423) scored cell gain with vemurafenib 0.59; lactate per cell with vemurafenib 1.54; inactive.
Against CXXC5 (GeneID 51523), the entry reads cell gain with vemurafenib 0.27; lactate per cell with vemurafenib 1.47; inactive.
PRR27 (GeneID 401137) scored cell gain with vemurafenib 0.79; lactate per cell with vemurafenib 1; inactive.
With knock-down of HJV (GeneID 148738), the screen gave cell gain with vemurafenib 0.61; lactate per cell with vemurafenib 1.13; inactive.
Against UMODL1 (GeneID 89766) the deposit lists cell gain with vemurafenib 1.1; lactate per cell with vemurafenib 1.36; inactive.
For CDC7 (GeneID 8317), the values are cell gain with vemurafenib 0.71; lactate per cell with vemurafenib 0.62; inactive.
Against ADCYAP1R1 (GeneID 117) the deposit lists cell gain with vemurafenib 0.55; lactate per cell with vemurafenib 0.7; inactive.
